# Experimental data from publication PMC7862700.
# Protein sequences, listed by entry. Tags and fused reporters are not part of them. Lines headed by an entry give the natural chain unless they say otherwise; changes in a name come on top.
# UniProt O43186: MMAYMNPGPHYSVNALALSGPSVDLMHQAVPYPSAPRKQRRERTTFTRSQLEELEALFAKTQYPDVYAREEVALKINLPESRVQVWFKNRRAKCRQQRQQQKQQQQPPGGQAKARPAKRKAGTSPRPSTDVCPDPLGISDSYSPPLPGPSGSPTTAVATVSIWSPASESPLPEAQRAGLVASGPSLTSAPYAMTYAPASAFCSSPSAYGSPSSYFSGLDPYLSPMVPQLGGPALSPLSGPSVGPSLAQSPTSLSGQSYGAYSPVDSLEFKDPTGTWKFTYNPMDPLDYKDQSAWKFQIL
# The entries are a selection whose mix differs from that of the whole data set. At the low end of the ranking, values are background and their order means little.
# Target: CRX (UniProt O43186)
# Assay: DAPPL (digital affinity profiling via proximity ligation, sequencing)
# Conditions: 10 mM Tris-HCl pH 7.5, 50 mM NaCl, 1 mM DTT, 4% glycerol, room temperature, 30 min; GST-TFs on glutathione beads, 16-mer random dsDNA library, 0.1% …; high values mean tight binding; double strand, one strand shown; scale: fold enrichment (6-mer frequency, TF over GST control)
row,Sequence,binding signal
1,CACCAC,0.837
2,CGATGG,1.14
3,AAAGGC,1.03
4,TGCGCC,0.884
5,TCATGT,0.953
6,TACCTT,1.55
7,ACTACA,0.946
8,CGTACC,0.781
9,GCCCAT,0.892
10,ACAATG,0.808
11,GGTTCC,0.729
12,TGGCAC,0.915
13,GTCTCT,1
14,GGTAAA,1.07
15,ACTCGT,1.08
16,AGTCCC,0.899
17,CCGAAA,1.28
18,TGAACA,1.06
19,CATACG,0.839
20,TCCGGT,1.04

row,Sequence,binding signal
1,ATGGTC,0.977
2,CTCTCG,1.32
3,CGGTTC,0.715
4,AAACCG,0.916
5,CATTTG,1.07
6,GCTTAC,2.01
7,TACCTA,1.55
8,GCTGCC,0.843
9,ACCCGG,0.755
10,CACATA,0.97
11,TCACAA,1.09
12,ATACGG,0.976
13,CACTGC,0.975
14,GTCTCG,1.06
15,CTGACC,1.01
16,TCATCT,1.5
17,CTTTGT,1.38
18,TTGTCA,0.998
19,TGCACA,0.835

# Quoted from the listing.
# ACTACA – binding signal: 0.946
# TGCGCC – binding signal: 0.884
